# No constants are given. Whether binding was seen depends on the method and setting. In cells and extracts the contact can be indirect. Here binding means that the protein was enriched with, or labelled near, the bait; the list need not be complete. Tags and fused reporters may be left off the sequences shown.
# T1: FLAG-HA tandem tagged Miga (from pUASattB Miga-FLAG-HA) (Drosophila melanogaster) (UniProt Q9W3F7)
# T1 sequence: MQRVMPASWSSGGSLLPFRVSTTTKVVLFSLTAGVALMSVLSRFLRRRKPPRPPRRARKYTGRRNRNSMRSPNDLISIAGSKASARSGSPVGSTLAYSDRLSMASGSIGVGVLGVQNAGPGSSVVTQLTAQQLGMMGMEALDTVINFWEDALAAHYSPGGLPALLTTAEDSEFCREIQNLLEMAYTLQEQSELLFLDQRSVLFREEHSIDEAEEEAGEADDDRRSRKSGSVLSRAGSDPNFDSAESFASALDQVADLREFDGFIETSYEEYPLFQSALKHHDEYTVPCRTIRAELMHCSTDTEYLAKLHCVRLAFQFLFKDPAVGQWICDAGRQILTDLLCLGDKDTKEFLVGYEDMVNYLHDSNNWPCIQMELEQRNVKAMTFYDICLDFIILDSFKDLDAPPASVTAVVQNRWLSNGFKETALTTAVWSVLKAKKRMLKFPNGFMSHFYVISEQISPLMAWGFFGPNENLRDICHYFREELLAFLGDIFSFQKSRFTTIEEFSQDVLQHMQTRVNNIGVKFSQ
# Target: T1, FLAG-HA tandem tagged Miga (from pUASattB Miga-FLAG-HA) (Drosophila melanogaster)
# Experiment: affinity purification with mass spectrometry; tandem IP of FLAG-HA tagged Miga overexpressed in S2 cells for 48 hr: FLAG beads, eluted with FLAG peptide, then HA beads; SDS-PAGE, LC-MS/MS
binder,measurement,value
"Vap33 (found by mass spectrometry with tagged Miga from S2 cells) (protein, UniProt Q9W4N8 1-269) MSKSLFDLPLTIEPEHELRFVGPFTRPVVTIMTLRNNSALPLVFKIKTTAPKRYCVRPNIGKIIPFRSTQVEICLQPFVYDQQEKNKHKFMVQSVLAPMDADLSDLNKLWKDLEPEQLMDAKLKCVFEMPTAEANAENTSGGGAVGGGTGAAGGGSAGANTSSASAEALESKPKLSSEDKFKPSNLLETSESLDLLSGEIKALRECNIELRRENLHLKDQITRFRSSPAVKQVNEPYAPVLAEKQIPVFYIAVAIAAAIVSLLLGKFFL",binding,binds

# — paper PMC7556861
